Protein sequences, listed by entry. Tags and fused reporters are not part of them.
UniProt P38859, whole entry: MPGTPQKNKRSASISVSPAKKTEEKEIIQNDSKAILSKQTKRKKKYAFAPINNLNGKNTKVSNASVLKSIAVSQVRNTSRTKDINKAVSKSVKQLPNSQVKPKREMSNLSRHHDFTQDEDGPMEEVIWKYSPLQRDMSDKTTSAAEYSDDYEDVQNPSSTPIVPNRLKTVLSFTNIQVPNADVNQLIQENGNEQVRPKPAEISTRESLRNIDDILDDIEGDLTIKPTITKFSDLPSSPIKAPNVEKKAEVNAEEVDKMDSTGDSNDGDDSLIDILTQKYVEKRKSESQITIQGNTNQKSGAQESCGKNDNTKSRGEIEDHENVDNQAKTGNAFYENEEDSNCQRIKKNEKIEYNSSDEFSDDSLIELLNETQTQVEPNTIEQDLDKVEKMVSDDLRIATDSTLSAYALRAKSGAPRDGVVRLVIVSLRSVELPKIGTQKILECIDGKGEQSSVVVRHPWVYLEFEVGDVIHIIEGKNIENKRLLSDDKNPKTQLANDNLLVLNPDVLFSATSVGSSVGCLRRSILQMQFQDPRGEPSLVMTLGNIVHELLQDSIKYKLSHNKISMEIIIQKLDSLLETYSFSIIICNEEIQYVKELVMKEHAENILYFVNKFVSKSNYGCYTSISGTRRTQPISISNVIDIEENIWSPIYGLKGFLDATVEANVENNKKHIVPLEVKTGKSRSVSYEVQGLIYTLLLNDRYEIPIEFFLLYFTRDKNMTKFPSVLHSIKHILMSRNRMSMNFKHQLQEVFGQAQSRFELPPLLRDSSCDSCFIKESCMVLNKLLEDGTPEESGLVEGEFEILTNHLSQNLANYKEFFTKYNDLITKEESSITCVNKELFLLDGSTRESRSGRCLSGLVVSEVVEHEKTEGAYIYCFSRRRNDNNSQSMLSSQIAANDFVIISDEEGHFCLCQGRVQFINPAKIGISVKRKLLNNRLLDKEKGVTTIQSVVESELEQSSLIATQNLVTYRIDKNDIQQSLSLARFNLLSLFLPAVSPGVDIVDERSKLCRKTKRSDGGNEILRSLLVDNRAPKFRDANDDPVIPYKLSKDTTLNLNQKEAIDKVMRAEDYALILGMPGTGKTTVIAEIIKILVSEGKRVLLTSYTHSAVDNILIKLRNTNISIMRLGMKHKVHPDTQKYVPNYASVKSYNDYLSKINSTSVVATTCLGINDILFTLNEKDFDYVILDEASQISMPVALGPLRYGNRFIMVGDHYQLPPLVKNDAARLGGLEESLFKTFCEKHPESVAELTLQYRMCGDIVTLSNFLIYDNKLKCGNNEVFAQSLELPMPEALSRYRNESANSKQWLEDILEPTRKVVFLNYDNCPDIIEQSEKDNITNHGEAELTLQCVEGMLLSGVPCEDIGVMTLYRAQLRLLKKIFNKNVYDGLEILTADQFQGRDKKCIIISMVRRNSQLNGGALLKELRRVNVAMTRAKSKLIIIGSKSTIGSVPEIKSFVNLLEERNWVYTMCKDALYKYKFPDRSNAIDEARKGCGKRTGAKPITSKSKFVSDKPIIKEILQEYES

In paper PMC5520492, “Inhibition of DNA2 nuclease as a therapeutic strategy targeting replication stress in cancer cells” (Oncogenesis, 2017):

Target: yDna2 (Saccharomyces cerevisiae, UniProt P38859)
Test: High-throughput fluorescence nuclease assay with yDna2 (triply labeled (dT)30 ssDNA)
Type: biochemical, yeast
Details: read-out: IC50 from Screening In Vitro; compounds that inhibit yDna2 but not T5 nuclease; 384-well platform

SMILES: COC1=C(N)C(=O)c2nc(-c3nc(C(=O)O)c(C)c(-c4ccc(OC)c(OC)c4O)c3N)ccc2C1=O
- IC50: 5.9 µM and 2.5 µM

Some entries of the source have several records that differ or are many. The other results are left out here. There may be further records. Results that share an entry differ, and nothing given here explains why; they may come from other doses, times, organisms or constructs than stated.
